# Literature values as cited in patent publication US20260191797A1, “AMPHIPHILIC POLY(AMINO ACID) LINEAR BLOCK COPOLYMERS AND NANOPARTICLES THEREOF FOR DRUG DELIVERY APPLICATIONS” (Nanothera Biosciences Inc., priority 2022, published 2026).
# Details: free paclitaxel
compound,measurement,value
"CC(=O)O[C@H]1C(=O)[C@@]2(C)[C@H]([C@H](OC(=O)c3ccccc3)[C@]3(O)C[C@H](OC(=O)[C@H](O)[C@@H](NC(=O)c4ccccc4)c4ccccc4)C(C)=C1C3(C)C)[C@]1(OC(C)=O)CO[C@@H]1C[C@@H]2O [PTX, Paclitaxel]",PTX solubility in water,lower than 0.1 μg/mL
